Laboratory results from the supplement of paper PMC6411743.
± gives the standard deviation of the averaged measurements. The list shows a part of the results, in another mix than the full data. Small differences around the control level are noise.

Chains of the proteins cited; added tags and fusions are not shown. Lines headed by an entry give the natural chain unless they say otherwise; changes in a name come on top.
UniProt Q66GS9: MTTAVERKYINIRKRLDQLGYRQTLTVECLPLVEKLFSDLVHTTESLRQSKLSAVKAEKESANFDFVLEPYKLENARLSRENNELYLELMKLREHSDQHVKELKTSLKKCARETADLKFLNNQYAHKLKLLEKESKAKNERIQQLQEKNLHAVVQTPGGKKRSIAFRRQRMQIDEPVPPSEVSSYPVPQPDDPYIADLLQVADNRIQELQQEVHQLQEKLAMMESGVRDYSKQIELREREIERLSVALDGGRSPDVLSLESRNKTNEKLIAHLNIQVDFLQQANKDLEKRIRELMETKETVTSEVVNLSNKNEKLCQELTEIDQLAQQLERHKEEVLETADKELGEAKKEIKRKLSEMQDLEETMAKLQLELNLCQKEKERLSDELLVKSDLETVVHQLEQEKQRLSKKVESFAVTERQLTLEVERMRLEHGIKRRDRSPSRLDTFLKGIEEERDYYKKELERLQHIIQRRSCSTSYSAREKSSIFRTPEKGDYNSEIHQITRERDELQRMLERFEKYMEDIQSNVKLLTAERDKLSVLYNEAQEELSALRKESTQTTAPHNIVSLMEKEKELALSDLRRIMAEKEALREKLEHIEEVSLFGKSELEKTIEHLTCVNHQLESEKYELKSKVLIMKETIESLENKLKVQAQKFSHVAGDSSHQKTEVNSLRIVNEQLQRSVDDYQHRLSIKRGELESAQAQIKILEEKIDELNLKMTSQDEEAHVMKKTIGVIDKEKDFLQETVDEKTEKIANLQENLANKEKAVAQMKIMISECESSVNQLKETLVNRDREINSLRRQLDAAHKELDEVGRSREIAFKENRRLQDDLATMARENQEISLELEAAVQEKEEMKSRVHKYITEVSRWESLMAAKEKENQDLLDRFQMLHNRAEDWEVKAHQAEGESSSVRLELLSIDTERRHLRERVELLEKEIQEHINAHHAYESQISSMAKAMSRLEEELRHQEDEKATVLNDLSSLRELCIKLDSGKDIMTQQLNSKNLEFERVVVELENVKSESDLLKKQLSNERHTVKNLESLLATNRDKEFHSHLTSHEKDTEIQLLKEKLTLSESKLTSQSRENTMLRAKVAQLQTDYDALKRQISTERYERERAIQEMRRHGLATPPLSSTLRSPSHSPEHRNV
UniProt Q6IQ49: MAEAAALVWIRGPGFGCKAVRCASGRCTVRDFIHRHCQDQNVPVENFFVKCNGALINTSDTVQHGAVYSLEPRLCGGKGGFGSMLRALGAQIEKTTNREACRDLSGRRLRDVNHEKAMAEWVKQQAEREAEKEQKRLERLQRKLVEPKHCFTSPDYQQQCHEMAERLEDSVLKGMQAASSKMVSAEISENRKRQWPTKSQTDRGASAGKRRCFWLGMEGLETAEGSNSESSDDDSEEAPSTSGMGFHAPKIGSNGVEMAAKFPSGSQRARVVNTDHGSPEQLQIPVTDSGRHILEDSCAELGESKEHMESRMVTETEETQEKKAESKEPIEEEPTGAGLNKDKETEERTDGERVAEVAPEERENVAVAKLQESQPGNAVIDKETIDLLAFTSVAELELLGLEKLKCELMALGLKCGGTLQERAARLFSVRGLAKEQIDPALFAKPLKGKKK
UniProt Q7Z2T5: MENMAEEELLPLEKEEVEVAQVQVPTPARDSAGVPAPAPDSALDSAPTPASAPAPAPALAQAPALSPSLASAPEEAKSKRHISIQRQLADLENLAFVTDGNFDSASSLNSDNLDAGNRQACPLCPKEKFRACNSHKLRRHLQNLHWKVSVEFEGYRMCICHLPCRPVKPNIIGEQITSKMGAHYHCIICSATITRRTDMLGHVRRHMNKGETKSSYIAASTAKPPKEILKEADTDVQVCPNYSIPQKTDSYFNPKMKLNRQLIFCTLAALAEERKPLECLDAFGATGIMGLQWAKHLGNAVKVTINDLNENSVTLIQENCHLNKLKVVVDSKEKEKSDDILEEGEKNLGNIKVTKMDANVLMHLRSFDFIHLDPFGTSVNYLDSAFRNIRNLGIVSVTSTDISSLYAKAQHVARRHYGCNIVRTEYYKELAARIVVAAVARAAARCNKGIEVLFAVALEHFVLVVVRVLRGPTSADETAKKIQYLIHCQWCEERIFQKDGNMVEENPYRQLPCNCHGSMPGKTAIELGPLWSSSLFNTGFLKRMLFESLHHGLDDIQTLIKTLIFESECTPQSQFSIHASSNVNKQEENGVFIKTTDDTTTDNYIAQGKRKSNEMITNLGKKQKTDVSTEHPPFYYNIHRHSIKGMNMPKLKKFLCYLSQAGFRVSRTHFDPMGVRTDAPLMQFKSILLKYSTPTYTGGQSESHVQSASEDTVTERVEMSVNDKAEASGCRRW
UniProt Q6ZNJ1: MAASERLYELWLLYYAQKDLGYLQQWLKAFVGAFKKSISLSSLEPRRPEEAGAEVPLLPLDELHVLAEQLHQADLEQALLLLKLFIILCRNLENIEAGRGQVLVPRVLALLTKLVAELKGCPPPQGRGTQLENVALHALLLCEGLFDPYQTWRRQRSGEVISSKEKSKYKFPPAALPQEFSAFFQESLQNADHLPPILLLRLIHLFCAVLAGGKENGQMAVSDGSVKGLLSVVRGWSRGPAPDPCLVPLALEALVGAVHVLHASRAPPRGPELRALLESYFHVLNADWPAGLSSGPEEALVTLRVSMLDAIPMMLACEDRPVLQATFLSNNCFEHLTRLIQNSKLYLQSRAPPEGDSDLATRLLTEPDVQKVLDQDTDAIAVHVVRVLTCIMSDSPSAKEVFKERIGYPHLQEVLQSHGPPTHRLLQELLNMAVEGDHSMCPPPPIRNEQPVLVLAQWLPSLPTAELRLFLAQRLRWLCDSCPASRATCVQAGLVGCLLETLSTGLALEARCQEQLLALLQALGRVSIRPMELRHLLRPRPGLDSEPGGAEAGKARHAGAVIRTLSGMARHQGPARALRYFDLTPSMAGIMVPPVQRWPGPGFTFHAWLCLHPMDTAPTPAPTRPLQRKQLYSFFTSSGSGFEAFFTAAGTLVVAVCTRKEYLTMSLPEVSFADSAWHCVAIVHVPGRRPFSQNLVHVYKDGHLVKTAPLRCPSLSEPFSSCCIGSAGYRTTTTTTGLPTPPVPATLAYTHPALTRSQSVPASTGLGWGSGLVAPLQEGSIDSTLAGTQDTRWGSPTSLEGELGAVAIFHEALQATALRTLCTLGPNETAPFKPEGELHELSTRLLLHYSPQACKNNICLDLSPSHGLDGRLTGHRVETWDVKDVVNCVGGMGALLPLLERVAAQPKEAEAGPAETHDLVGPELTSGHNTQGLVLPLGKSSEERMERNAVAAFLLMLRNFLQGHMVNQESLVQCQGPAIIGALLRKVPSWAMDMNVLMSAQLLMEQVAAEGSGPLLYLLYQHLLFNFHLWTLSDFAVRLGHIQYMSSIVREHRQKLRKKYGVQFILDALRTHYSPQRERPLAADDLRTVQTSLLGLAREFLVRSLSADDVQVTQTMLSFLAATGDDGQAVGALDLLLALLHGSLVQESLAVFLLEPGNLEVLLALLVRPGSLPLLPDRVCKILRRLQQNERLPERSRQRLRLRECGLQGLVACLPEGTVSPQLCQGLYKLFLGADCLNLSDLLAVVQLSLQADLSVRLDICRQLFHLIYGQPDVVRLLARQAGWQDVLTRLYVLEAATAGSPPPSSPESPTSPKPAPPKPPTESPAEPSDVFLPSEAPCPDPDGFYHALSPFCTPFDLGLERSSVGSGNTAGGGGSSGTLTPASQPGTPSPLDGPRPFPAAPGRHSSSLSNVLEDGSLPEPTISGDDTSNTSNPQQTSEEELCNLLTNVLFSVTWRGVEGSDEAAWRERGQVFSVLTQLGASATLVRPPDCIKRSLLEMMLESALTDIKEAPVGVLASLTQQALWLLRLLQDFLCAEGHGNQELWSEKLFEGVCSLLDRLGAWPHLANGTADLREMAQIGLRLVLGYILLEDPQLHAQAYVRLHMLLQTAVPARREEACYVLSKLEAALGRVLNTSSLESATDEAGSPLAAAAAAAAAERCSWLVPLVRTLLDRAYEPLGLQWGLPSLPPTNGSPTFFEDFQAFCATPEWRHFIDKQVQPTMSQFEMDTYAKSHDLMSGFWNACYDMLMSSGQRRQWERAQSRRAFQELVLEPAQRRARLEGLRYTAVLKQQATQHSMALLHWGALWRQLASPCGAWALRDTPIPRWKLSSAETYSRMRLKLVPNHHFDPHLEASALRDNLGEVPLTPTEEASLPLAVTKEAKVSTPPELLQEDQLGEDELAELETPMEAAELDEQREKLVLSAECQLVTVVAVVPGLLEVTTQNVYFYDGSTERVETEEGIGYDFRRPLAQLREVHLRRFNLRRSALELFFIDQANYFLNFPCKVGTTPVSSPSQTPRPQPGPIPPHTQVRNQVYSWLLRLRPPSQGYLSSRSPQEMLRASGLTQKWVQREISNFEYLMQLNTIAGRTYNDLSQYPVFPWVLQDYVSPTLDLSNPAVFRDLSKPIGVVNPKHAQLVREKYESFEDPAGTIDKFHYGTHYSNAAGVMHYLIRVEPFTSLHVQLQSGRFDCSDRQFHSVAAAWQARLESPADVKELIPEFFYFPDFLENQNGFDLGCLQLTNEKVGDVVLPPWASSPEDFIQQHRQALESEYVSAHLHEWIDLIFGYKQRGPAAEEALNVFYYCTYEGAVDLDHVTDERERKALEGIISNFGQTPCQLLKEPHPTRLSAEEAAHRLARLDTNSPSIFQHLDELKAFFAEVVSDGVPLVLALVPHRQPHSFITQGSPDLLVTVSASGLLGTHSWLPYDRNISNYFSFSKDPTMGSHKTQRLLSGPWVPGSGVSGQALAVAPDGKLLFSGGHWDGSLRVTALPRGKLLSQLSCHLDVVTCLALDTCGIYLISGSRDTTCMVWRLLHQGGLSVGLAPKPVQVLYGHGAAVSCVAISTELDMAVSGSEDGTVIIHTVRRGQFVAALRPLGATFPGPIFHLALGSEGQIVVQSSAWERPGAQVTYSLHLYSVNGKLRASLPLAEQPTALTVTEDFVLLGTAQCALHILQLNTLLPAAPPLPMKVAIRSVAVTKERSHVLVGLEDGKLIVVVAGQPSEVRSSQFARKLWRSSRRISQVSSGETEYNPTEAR
UniProt Q6PJ69: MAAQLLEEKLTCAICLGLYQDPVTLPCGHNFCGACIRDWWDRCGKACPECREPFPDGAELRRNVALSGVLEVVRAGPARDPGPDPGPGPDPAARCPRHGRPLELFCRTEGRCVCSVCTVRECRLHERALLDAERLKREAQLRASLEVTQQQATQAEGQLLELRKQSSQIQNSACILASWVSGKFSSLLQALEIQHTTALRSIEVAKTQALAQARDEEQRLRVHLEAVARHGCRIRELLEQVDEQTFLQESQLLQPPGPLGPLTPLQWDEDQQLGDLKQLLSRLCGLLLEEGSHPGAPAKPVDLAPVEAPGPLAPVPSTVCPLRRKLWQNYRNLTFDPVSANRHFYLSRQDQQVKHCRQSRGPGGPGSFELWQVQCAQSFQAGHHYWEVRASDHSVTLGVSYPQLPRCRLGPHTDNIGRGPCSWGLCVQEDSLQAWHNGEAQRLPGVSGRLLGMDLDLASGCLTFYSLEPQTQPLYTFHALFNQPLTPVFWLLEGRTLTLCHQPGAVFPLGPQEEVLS
UniProt Q71SY5: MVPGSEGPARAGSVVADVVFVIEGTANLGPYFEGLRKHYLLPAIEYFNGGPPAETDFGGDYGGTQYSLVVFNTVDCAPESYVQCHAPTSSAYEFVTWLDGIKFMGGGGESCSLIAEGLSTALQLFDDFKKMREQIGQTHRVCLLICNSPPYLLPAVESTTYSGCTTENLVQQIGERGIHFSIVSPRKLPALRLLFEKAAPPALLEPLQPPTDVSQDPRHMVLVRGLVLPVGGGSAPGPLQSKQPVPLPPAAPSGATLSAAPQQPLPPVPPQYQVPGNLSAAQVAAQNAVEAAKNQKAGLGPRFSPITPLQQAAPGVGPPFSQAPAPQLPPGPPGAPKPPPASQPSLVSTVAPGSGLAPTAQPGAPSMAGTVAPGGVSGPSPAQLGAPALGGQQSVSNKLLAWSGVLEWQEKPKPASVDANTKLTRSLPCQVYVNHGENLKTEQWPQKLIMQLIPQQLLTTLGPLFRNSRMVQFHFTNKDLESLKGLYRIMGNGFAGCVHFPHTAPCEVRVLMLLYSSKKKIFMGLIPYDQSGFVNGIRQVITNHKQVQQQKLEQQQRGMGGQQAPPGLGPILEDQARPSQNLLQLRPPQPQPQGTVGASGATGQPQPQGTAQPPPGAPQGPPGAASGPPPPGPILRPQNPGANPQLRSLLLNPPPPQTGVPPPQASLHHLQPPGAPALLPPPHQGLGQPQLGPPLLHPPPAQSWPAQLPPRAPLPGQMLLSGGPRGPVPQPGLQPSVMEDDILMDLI
UniProt O14880: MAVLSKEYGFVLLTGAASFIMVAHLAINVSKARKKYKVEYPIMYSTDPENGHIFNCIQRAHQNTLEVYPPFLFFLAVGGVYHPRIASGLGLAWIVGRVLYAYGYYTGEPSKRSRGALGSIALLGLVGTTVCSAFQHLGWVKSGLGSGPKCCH

Compound: Nc1ncnc2c1ncn2[C@@H]1O[C@H](COP(=O)(O)OP(=O)(O)NP(=O)(O)O)[C@@H](O)[C@H]1O [adenylyl imidodiphosphate]
Test: NP40-soluble protein abundance relative to vehicle (solubility fold change) (ratio); higher = more soluble protein in presence of AMP-PNP
Method in brief: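 Eight concentrations, 0.1 to 10 mM, were tested on Jurkat crude lysate for 10 min at room temperature and then 3 min at 37 °C, in three independent experiments. The lysate was solubilised with 0.8% NP40 and benzonase, ultracentrifuged, and the supernatant TMT-labelled for LC-MS/MS. Each value is the fold change against the detergent-processed vehicle in its own replicate, from vsn-normalised intensities.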

Target	NP40-soluble protein abundance (concentration: 0.1mM)	NP40-soluble protein abundance (concentration: 0.5mM)
CEP135 (UniProt Q66GS9)	0.976 ± 0.028	0.942 ± 0.038
UniProt Q6IQ49 and related entries	0.953 ± 0.021	0.96 ± 0.012
UniProt Q7Z2T5	1.02 ± 0.03	1.02 ± 0.029
UniProt Q6PJW8	0.996 ± 0.0068	0.979 ± 0.029
UniProt Q71F23	1.038 ± 0.0054	1.02 ± 0.028
ADNP2 (UniProt Q6IQ32)	1.01 ± 0.024	0.979 ± 0.042
UniProt Q6ZNJ1 and related entries	1.02 ± 0.021	0.987 ± 0.037
UniProt Q6IAA8 and related entries	0.988 ± 0.021	0.995 ± 0.054
FAHD1 (UniProt Q6P587)	0.987 ± 0.018	0.983 ± 0.013
UniProt Q6GYQ0 and related entries	0.985 ± 0.025	0.962 ± 0.034
CBLL1 (UniProt Q75N03)	0.994 ± 0.026	0.966 ± 0.023
UniProt Q7KZ85 and related entries	1 ± 0.043	0.982 ± 0.046
TRIM65 (UniProt Q6PJ69)	1.029 ± 0.0085	1 ± 0.029
UniProt Q70Z53 and related entries	0.968 ± 0.034	0.982 ± 0.054
DYM (UniProt Q7RTS9)	1.018 ± 0.0075	0.994 ± 0.014
UniProt Q7L099-2|Q7L099-3|Q7L099-4	0.978 ± 0.034	0.983 ± 0.042
FBXO38 (UniProt Q6PIJ6)	0.988 ± 0.017	0.979 ± 0.034
UniProt Q71SY5 and related entries	1.03 ± 0.062	1.05 ± 0.088
UniProt Q7Z4G4 and related entries	0.973 ± 0.036	0.974 ± 0.071
HEATR3 (UniProt Q7Z4Q2)	1.02 ± 0.016	1.01 ± 0.014
UniProt Q6UXH1 and related entries	0.944 ± 0.043	0.984 ± 0.04
Q5VV87 and related entries (UniProt O14880)	0.978 ± 0.045	0.983 ± 0.036

Record cards (already shown):
FAHD1 (UniProt Q6P587) reads NP40-soluble protein abundance (concentration: 0.1mM): 0.987 ± 0.018; NP40-soluble protein abundance (concentration: 0.5mM): 0.983 ± 0.013
CEP135 (UniProt Q66GS9) reads NP40-soluble protein abundance (concentration: 0.1mM): 0.976 ± 0.028; NP40-soluble protein abundance (concentration: 0.5mM): 0.942 ± 0.038
